Laboratory results: PubChem BioAssay AID1347076 (National Center for Advancing Translational Sciences (NCATS), 2019)
Hit rate of the full screen: of about 400,000 compounds, about 13,000 (3.2%) were called active. The shares of active, inactive and inconclusive entries below differ from those in the screen. Calls come from the whole dose curve; as a rule, active = well fitted cell-killing curve with a large enough effect; inconclusive = small, poorly fitted or top-dose-only effect, or effect the other way; inactive = flat fitted curve, though single readings scatter. Where the call is inconclusive, the potency comes from a doubtful curve fit.

assay: qHTS assay for MDR1-selective chemotherapeutics: Primary screen using the drug-selected MDR subline cells KB-V1; details: KB-V1 MDR cells viability, CellTiter-Glo, 72 h; activity change, negative = cytotoxicity: at 46.1 µM (top of the series); note: nearly all actives have a fitted effect of over 60% in size
Outline: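 Luminescent ATP read-out (CellTiter-Glo, 10 min) measures survival of drug-selected KB-V1 MDR cells after 72 h, 37 degrees C compound exposure. Medium: phenol-red-free DMEM, 10% FBS. Values from fitted concentration-response curves.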
% is set by controls: 0 for no effect and ±100 for the full control effect; potency is the fitted concentration of half-maximal effect.

For `Cc1c(NC(=O)c2cc(=O)c3cc(Cl)ccc3o2)c(=O)n(-c2ccccc2)n1C`, which Potency is on record?
The Potency was “inactive”.

Which Potency does the source give for `CCC(C)NC(=O)c1oc2ccc(S(=O)(=O)N3CCC4(CC3)OCCO4)cc2c1C` (stereo not given) here?
The Potency was inconclusive: 16.4 µM [cytotoxic, partial curve].

For `COC(=O)C1C(=O)CC(C)(O)C(C(=O)OC)C1/C=C/c1ccccc1` (stereo not given), which Potency is on record?
Its Potency is “inactive”.

For `Cc1oc(-c2nc3ccccc3n2C)cc1C(=O)c1ccccc1`, which Potency is on record?
The Potency was inconclusive: 14.6 µM [cytotoxic, partial curve, poor fit].

With `COc1ccc(C)cc1NCc1cccc(OC)c1OC` as the molecule, how does the Potency read?
The Potency was inconclusive: 20.6 µM [cytotoxic, single point].

Which Potency does the source give for `Cc1ccc(C(=O)N2CCN(c3ccc(NC(=O)c4cccnc4Cl)cc3)CC2)cc1` here?
Its Potency is inconclusive: 14.6 µM [cytotoxic, partial curve].

With `COc1cc(C(=O)/C=C/Nc2ccc(NC(C)=O)cc2)cc(OC)c1OC` as the molecule, how does the Potency read?
Its Potency is active: 20.6 µM.

Which Potency does the source give for `CC(=O)Nc1ccc(S(=O)(=O)Nc2ccc(Cl)cn2)cc1` here?
Its Potency is “inactive”.

With `COc1ccccc1C1CCN(Cc2c(C)[nH]c3ccccc23)CC1` as the molecule, how does the Potency read?
Its Potency is inconclusive: 32.6 µM [cytotoxic, single point].

Which Potency does the source give for `O=C(c1cc(=O)c2ccccc2o1)N1CCCc2ccccc21` here?
Its Potency is “inactive”.

Which Potency does the source give for `Cc1nnc(SCc2nnc(-c3ccccc3Br)o2)n1-c1ccccc1` here?
The Potency was inconclusive: 18.4 µM [cytotoxic, partial curve].

With `COc1cccc(C(=O)c2cn(CC(=O)Nc3cccc(C)c3C)c3nc(C)ccc3c2=O)c1` as the molecule, how does the Potency read?
Its Potency is “inactive”.

For `CCCn1c(C)cc(C(=O)COC(=O)c2c(C)nn(-c3ccccc3)c2C)c1C`, which Potency is on record?
Its Potency is inconclusive: 11.6 µM [cytotoxic, partial curve].

Which Potency does the source give for `COc1ccc(-n2c(Cn3nnc4ccccc43)n[nH]c2=S)cc1` here?
Its Potency is inconclusive: 14.6 µM [rising, partial curve].

With `Oc1cc2cc(-c3csc(-c4ccc(F)cc4)n3)cc3c2n1CCC3` as the molecule, how does the Potency read?
The Potency was “inactive”.

For `CCn1c(=O)n(CC)c2cc(N3CCCC3)c(NC(=O)c3cccc(OC)c3)cc21`, which Potency is on record?
The Potency was inconclusive: 10.3 µM [cytotoxic, partial curve].

Which Potency does the source give for `CCC(C)NC(=O)Nc1ccc2c(c1)N(C)C(=O)c1ccccc1S2` (stereo not given) here?
Its Potency is inconclusive: 18.4 µM [cytotoxic, single point].

With `Cc1cc(/C=C2/SC(=O)N(CC(=O)N3CCCC3)C2=O)ccc1N1CCOCC1` as the molecule, how does the Potency read?
The Potency was inconclusive: 7.31 µM [cytotoxic, partial curve].

Which Potency does the source give for `O=C(CSc1cn[nH]n1)Nc1ccccc1F` here?
The Potency was inconclusive: 2.91 µM [rising, partial curve, poor fit].

Which Potency does the source give for `COc1ccc(CCNCC(=O)Nc2ccc(C)c(S(=O)(=O)N(C)C)c2)cc1OC` here?
Its Potency is “inactive”.

Which Potency does the source give for `CCC(C(=O)NCCc1ccc(C)cc1)n1nc(C)c2c(C)n(-c3ccccc3)nc2c1=O` (stereo not given) here?
The Potency was “inactive”.

For `COc1ccc(COc2cccc3ccc(C)nc23)cc1F`, which Potency is on record?
Its Potency is inconclusive: 16.4 µM [cytotoxic, partial curve].

For `Cc1cc(C(=O)OCC(=O)N2CCN(c3ccccc3)CC2)c2ccccc2n1`, which Potency is on record?
Its Potency is “inactive”.

With `CC1CCN(c2ncnc3c2cnn3Cc2ccc(Cl)cc2)CC1` as the molecule, how does the Potency read?
The Potency was inconclusive: 18.4 µM [cytotoxic, partial curve].

For `Cc1cc(N2C(=O)C(O)=C(C(=O)c3cc4ccccc4o3)C2c2ccc(OC(C)C)cc2)no1` (stereo not given), which Potency is on record?
The Potency was “inactive”.

Which Potency does the source give for `Cc1cccc(-n2c(O)c(C=Nc3ccc(O)cc3)c3ccccc3c2=O)n1` here?
Its Potency is inconclusive: 13 µM [cytotoxic, partial curve, poor fit].

For `CCN1C(=O)/C(=C2/Sc3ccccc3N2CC)S/C1=N\c1ncn[nH]1`, which Potency is on record?
Its Potency is active: 23.1 µM.

With `CCc1ccc(C(=O)Nc2ccc3nn(-c4ccc(C)c(Cl)c4)nc3c2)cc1` as the molecule, how does the Potency read?
The Potency was inconclusive: 18.4 µM [cytotoxic, partial curve].

Which Potency does the source give for `Cn1nc(-c2ccc(C(=O)NC3CCCCC3)cc2)c2ccccc2c1=O` here?
The Potency was inconclusive: 5.17 µM [cytotoxic, partial curve].

Which Potency does the source give for `CC(CCc1ccccc1)OS(N)(=O)=O` (stereo not given) here?
The Potency was “inactive”.

For `COC(=O)Nc1ccc(S(=O)(=O)N2CCCC(C(=O)NC3CCS(=O)(=O)C3)C2)cc1` (stereo not given), which Potency is on record?
The Potency was “inactive”.

For `CN(Cc1ccccc1)C(=O)CSc1cc(=O)n(C)c2ccccc12`, which Potency is on record?
Its Potency is inconclusive: 16.4 µM [cytotoxic, single point].

Which Potency does the source give for `S=C(NCCC1=CCCCC1)NCc1ccco1` here?
Its Potency is inconclusive: 18.4 µM [cytotoxic, single point].

With `O=C(Nc1cc(Cl)ccc1O)c1cc2n(n1)C(C(F)(F)F)CC(c1ccc3c(c1)OCO3)N2` (stereo not given) as the molecule, how does the Potency read?
The Potency was inconclusive: 14.6 µM [cytotoxic, partial curve].

With `Nc1ccccc1NC1CCCCC1` as the molecule, how does the Potency read?
Its Potency is “inactive”.

For `COc1ccc(OC)c(NS(=O)(=O)c2ccc(N3CCCC3=O)cc2)c1`, which Potency is on record?
The Potency was active: 2.06 µM.

Which Potency does the source give for `CCC1Oc2ccccc2N(CC(=O)N2CC(C)CC(C)C2)C1=O` (stereo not given) here?
Its Potency is inconclusive: 20.6 µM [cytotoxic, single point].

Which Potency does the source give for `CCCC(c1nnnn1C1CCCCC1)N1CCN(C(=O)c2ccco2)CC1` (stereo not given) here?
Its Potency is inconclusive: 7.31 µM [cytotoxic, partial curve].

For `CCCS(=O)(=O)Nc1cc2c(cc1NCc1ccccc1)n(C)c(=O)n2C`, which Potency is on record?
The Potency was inconclusive: 0.184 µM [cytotoxic, full curve].

With `Cc1ccccc1-n1c(SCC(=O)c2c(N)n(C)c(=O)n(C)c2=O)nc2sc3c(c2c1=O)CCCC3` as the molecule, how does the Potency read?
The Potency was active: 23.1 µM.

With `COc1ccc(C(=O)NC(C)Cn2nc(C)cc2C)cc1OC1CCN(C(C)=O)CC1` (stereo not given) as the molecule, how does the Potency read?
The Potency was inconclusive: 29.1 µM [rising, single point].

Which Potency does the source give for `C=CCCC1CN(CCCC)S(=O)(=O)c2c(F)cccc2O1` (stereo not given) here?
Its Potency is “inactive”.

Which Potency does the source give for `COc1ccc(C(=O)c2cc([N+](=O)[O-])ccc2N2CCOCC2)cc1` here?
The Potency was active: 0.517 µM.

For `C/C(CC(C)C)=N/Nc1ccc([N+](=O)[O-])cc1[N+](=O)[O-]`, which Potency is on record?
Its Potency is “inactive”.

With `CCOC(=O)C1(Cc2cccc(OC)c2)CCCN(Cc2cc(OC)c(O)c(OC)c2)C1` (stereo not given) as the molecule, how does the Potency read?
Its Potency is inconclusive: 0.0146 µM [cytotoxic, full curve, poor fit].

Which Potency does the source give for `Cc1ccc(S(=O)(=O)N2CCC(=O)N([C@H](COCc3ccccc3)C(C)C)CC2)cc1` here?
The Potency was inconclusive: 5.17 µM [cytotoxic, partial curve, poor fit].

With `COCCCNC(=O)CCc1c(C)nc2c(-c3ccc(F)cc3)c(C)nn2c1C` as the molecule, how does the Potency read?
Its Potency is inconclusive: 7.31 µM [cytotoxic, partial curve].

For `O=C(CCn1cnc2ccccc2c1=O)Nc1ccc(Cl)c(Cl)c1`, which Potency is on record?
The Potency was inconclusive: 13 µM [cytotoxic, single point].

Which Potency does the source give for `COc1cccc(NC(=O)N(C)C[C@@H]2Oc3cc(Br)ccc3S(=O)(=O)N([C@@H](C)CO)C[C@H]2C)c1` here?
The Potency was inconclusive: 29.1 µM [cytotoxic, single point].

With `O=C(O)CSc1nnc(-c2cccs2)n1-c1ccc(Cl)cc1` as the molecule, how does the Potency read?
The Potency was “inactive”.

Which Potency does the source give for `Cc1ccc(NC(=O)CN(C)C(=O)C(C)N2CCN(Cc3ccccc3C)CC2)cc1` (stereo not given) here?
The Potency was active: 9.2 µM.

With `O=C(CSc1nnc(-c2ccncc2)n1Cc1ccco1)N1c2ccccc2Sc2ccc(Cl)cc21` as the molecule, how does the Potency read?
The Potency was “inactive”.

With `O=C(CSCCc1ccccn1)Nc1ccc(Br)cn1` as the molecule, how does the Potency read?
Its Potency is active: 20.6 µM.

Which Potency does the source give for `O=S(=O)(c1ccccc1)C1(C2CC(c3ccccc3)=NO2)CC(O)C1` (stereo not given) here?
Its Potency is “inactive”.

With `O=C(CNS(=O)(=O)c1cccc(Cl)c1)OCc1csc(-c2ccccc2)n1` as the molecule, how does the Potency read?
The Potency was “inactive”.

For `CC(=O)O[C@H]1C(=O)[C@@]2(C)C([C@H](OC(=O)c3ccccc3)[C@]3(O)C[C@H](OC(=O)[C@H](O)[C@@H](NC(=O)c4ccccc4)c4ccccc4)C(C)=C1C3(C)C)[C@]1(OC(C)=O)CO[C@@H]1C[C@H]2O` (stereo not given in full), which Potency is on record?
Its Potency is inconclusive: 29.1 µM [cytotoxic, single point].

With `CCOC(=O)C(=Cc1ccc(-n2ccnc2)cc1)C(=O)OCC` as the molecule, how does the Potency read?
Its Potency is inconclusive: 5.8 µM [cytotoxic, partial curve].

Which Potency does the source give for `CCOC(=O)N/N=C(\C)c1ccc(OC(F)F)cc1OC(F)F` here?
The Potency was “inactive”.

For `CCN(C(=S)NC(=O)c1ccco1)c1cccc2ccccc12`, which Potency is on record?
The Potency was inconclusive: 18.4 µM [cytotoxic, single point].

Which Potency does the source give for `COc1ccc(C(=O)c2ccccc2CN2C(=O)c3ccccc3C2=O)cc1` here?
The Potency was active: 16.4 µM.

With `COc1ccc(Nc2ncnc3sc(-c4ccccc4)cc23)cc1OC` as the molecule, how does the Potency read?
The Potency was “inactive”.

Which Potency does the source give for `Cc1ccccc1NC(=O)CSCc1cc(=O)n2ccsc2n1` here?
Its Potency is “inactive”.

With `CCOC(=O)Cn1c2c(c(=N)c3c1CCC3)CCC2` as the molecule, how does the Potency read?
The Potency was “inactive”.

Which activity change, negative = cytotoxicity does the source give for `S=C(NCc1cccs1)Nc1cc(Cl)cc(Cl)c1` here?
The activity change, negative = cytotoxicity was inconclusive: -52.8%.

With `CC1CCN(Cc2c(C#N)c3ccccc3n2C)CC1` as the molecule, how does the Potency read?
The Potency was “inactive”.

Which Potency does the source give for `CCC(=O)N1CCc2cc(Br)cc(S(=O)(=O)NCCc3ccccc3)c21` here?
The Potency was “inactive”.

With `COc1ccc(-c2nsc3c(N4CCCCC4)ncnc23)cc1` as the molecule, how does the Potency read?
The Potency was “inactive”.

For `CC(C)(C)C(=O)Nc1cccc(-c2nc3ccccc3[nH]2)c1`, which Potency is on record?
The Potency was “inactive”.

For `CCOC(=O)C(C)n1cnc2c(nnn2Cc2ccc(C)cc2)c1=O` (stereo not given), which Potency is on record?
Its Potency is inconclusive: 16.4 µM [cytotoxic, single point].

With `C/C(=N\NC(=O)COc1ccccc1-c1ccccc1)c1ccc(O)cc1O` as the molecule, how does the Potency read?
The Potency was inconclusive: 1.64 µM [cytotoxic, full curve].

Which Potency does the source give for `Cc1ccc([C@@]2(OC(=O)c3ccccc3)C(=O)N(C(=O)OC(C)(C)C)c3ccccc32)cc1` here?
The Potency was “inactive”.

With `COC(=O)N1CCN(c2ccc(Cl)c(Cl)c2)CC1` as the molecule, how does the Potency read?
Its Potency is active: 23.1 µM.

With `N#Cc1ccc(CSc2nnc(-c3ccccc3)n2Cc2ccco2)cc1` as the molecule, how does the Potency read?
Its Potency is active: 3.66 µM.

For `CCOc1ccc(N2CC(C(=O)Nc3cccc(S(=O)(=O)N4CCCC4)c3)CC2=O)cc1` (stereo not given), which Potency is on record?
Its Potency is “inactive”.

Which Potency does the source give for `COc1ccccc1CC(=O)N1CCN(c2cccc(C(F)(F)F)c2)CC1` here?
Its Potency is active: 11.6 µM.
